The list does not hold the whole screen: it is rich in T/C values a quarter to a half above the control, in often repeated tests (any T/C) and in doses without a T/C. Further doses and runs are listed elsewhere. T/C gives the treated animals as a percentage of the vehicle group. Some doses have a count of surviving animals in place of a T/C: the source files T/C as zero there, which appears to mark a toxic dose or a test without result, not a measured value. Some doses without a T/C left all or most animals alive at the check, yet need not have been tolerated: survival well below the control is almost never listed, so the zero probably covers shortened survival too. Counts of survivors are from the toxicity check (mostly the fifth day) where no day follows; animals may have died later. Schedules are NCI's codes, read here as Q, the interval in days (D) or hours (H), X, the number of doses. Some entries hold several experiments; their values stand side by side, smallest first. Counts like (3×) say how often a value occurs here. For survival time, this PubChem deposit counts one and a half times the control or more as active, and values a quarter to a half above the control carry no call in these data; other NCI protocols may use other cut-offs. Some T/C values carry the count of animals alive at the toxicity check (mostly the fifth day); where none is given, no animal had died by that day.
System: Lewis lung carcinoma i.m., BDF1 mice, T/C %
Experiment: NCI In Vivo Anticancer Drug Screen. Data for tumor model Lewis Lung Carcinoma (intramuscular) in B6D2F1 (BDF1) mice
Details: T/C endpoint: median survival time, higher T/C = longer survival
Method in brief: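 Mice carrying transplantable tumours received test compound. Survival or tumour size was recorded and expressed as the treated-group value (T) divided by the vehicle-treated control-group value (C).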

For `Cc1c(N)nc([C@H](CC(N)=O)NC[C@H](N)C(N)=O)nc1C(=O)N[C@H](C(=O)N[C@H](C)[C@@H](O)[C@H](C)C(=O)N[C@H](C(=O)NCCc1nc(-c2nc(C(=O)NCCC[S+](C)C)cs2)cs1)[C@@H](C)O)C(OC1OC(CO)C(O)C(O)C1OC1OC(CO)C(O)C(OC(N)=O)C1O)c1cnc[nH]1` (some centres undefined), the T/C (dose: 8.4 mg/kg/injection, schedule: Q01DX009 (ip), vehicle: saline, evaluated on day 48) was 102 [7 of 8 alive] and 111 % of control [7 of 8 alive], the T/C (dose: 8.4 mg/kg/injection, schedule: Q01DX009 (ip), vehicle: saline, evaluated on day 52) was 146 % of control and the T/C (dose: 8.5 mg/kg/injection, schedule: Q01DX011 (ip), vehicle: saline) was 133 % of control. The T/C (dose: 10.0 mg/kg/injection, schedule: Q01DX011 (ip), vehicle: saline) was 144 % of control, the T/C (dose: 12.5 mg/kg/injection, schedule: Q01DX011 (ip), vehicle: saline) was 133 % of control and the T/C (dose: 14.0 mg/kg/injection, schedule: Q01DX004 (ip), vehicle: saline) was 138 % of control. For the same compound, the T/C (dose: 14.0 mg/kg/injection, schedule: Q01DX009 (ip), vehicle: none) was 130 % of control, the T/C (dose: 14.0 mg/kg/injection, schedule: Q01DX009 (ip), vehicle: saline, evaluated on day 10) was 131 % of control and the T/C (dose: 14.0 mg/kg/injection, schedule: Q01DX009 (ip), vehicle: saline, evaluated on day 11) was 186 % of control. For the same compound, the T/C (dose: 14.0 mg/kg/injection, schedule: Q01DX009 (ip), vehicle: saline, evaluated on day 12) was 129 and 134 % of control, the T/C (dose: 14.0 mg/kg/injection, schedule: Q01DX009 (ip), vehicle: saline, evaluated on day 14) was 146 % of control and the T/C (dose: 14.0 mg/kg/injection, schedule: Q01DX009 (ip), vehicle: saline, evaluated on day 41) was 131 % of control [7 of 8 alive]. For the same compound, the T/C (dose: 14.0 mg/kg/injection, schedule: Q01DX009 (ip), vehicle: saline, evaluated on day 43) was 130 % of control [7 of 8 alive], the T/C (dose: 14.0 mg/kg/injection, schedule: Q01DX009 (ip), vehicle: saline, evaluated on day 45) was 132 % of control and the T/C (dose: 14.0 mg/kg/injection, schedule: Q01DX009 (ip), vehicle: saline, evaluated on day 48) was 130 [7 of 8 alive] and 158 % of control. The T/C (dose: 14.0 mg/kg/injection, schedule: Q01DX009 (ip), vehicle: saline, evaluated on day 52) was 146 % of control [7 of 8 alive], the T/C (dose: 14.0 mg/kg/injection, schedule: Q09DX009 (ip), vehicle: saline, evaluated on day 10) was 141 % of control and the T/C (dose: 14.0 mg/kg/injection, schedule: Q09DX009 (ip), vehicle: saline, evaluated on day 50) was 141 % of control [7 of 8 alive]. For the same compound, the T/C (dose: 16.0 mg/kg/injection, schedule: Q01DX009 (ip), vehicle: water, evaluated on day 45) was 138 and 187 % of control, the T/C (dose: 16.0 mg/kg/injection, schedule: Q01DX009 (ip), vehicle: water, evaluated on day 60) was 138 % of control and the survivor count (dose: 16.0 mg/kg/injection, schedule: Q01DX009 (ip), vehicle: water) was 9 of 10. The T/C (dose: 16.0 mg/kg/injection, schedule: Q01DX011 (ip), vehicle: saline) was 126 % of control, the survivor count (dose: 20.0 mg/kg/injection, schedule: Q01DX011 (ip), vehicle: saline) was 8 of 8 and the survivor count (dose: 20.0 mg/kg/injection, schedule: Q01DX014 (ip), vehicle: saline) was 8 of 8. For the same compound, the T/C (dose: 23.0 mg/kg/injection, schedule: Q01DX004 (ip), vehicle: saline) was 139 % of control, the T/C (dose: 23.0 mg/kg/injection, schedule: Q01DX009 (ip), vehicle: saline, evaluated on day 10) was 165 % of control and the T/C (dose: 23.0 mg/kg/injection, schedule: Q01DX009 (ip), vehicle: saline, evaluated on day 11) was 168 % of control. The T/C (dose: 23.0 mg/kg/injection, schedule: Q01DX009 (ip), vehicle: saline, evaluated on day 12) was 151 and 185 % of control, the T/C (dose: 23.0 mg/kg/injection, schedule: Q01DX009 (ip), vehicle: saline, evaluated on day 14) was 120 % of control and the T/C (dose: 23.0 mg/kg/injection, schedule: Q01DX009 (ip), vehicle: saline, evaluated on day 41) was 152 % of control [7 of 8 alive]. The T/C (dose: 23.0 mg/kg/injection, schedule: Q01DX009 (ip), vehicle: saline, evaluated on day 43) was 182 % of control [7 of 8 alive], the survivor count (dose: 23.0 mg/kg/injection, schedule: Q01DX009 (ip), vehicle: saline) was 5 of 8 (2×), 6 of 8, 7 of 8 and the T/C (dose: 23.0 mg/kg/injection, schedule: Q04DX003 (ip), vehicle: saline) was 127 % of control. The survivor count (dose: 25.0 mg/kg/injection, schedule: Q01DX011 (ip), vehicle: saline) was 0 of 8, the T/C (dose: 25.0 mg/kg/injection, schedule: Q04DX003 (ip), vehicle: saline) was 136 % of control and the survivor count (dose: 30.0 mg/kg/injection, schedule: Q01DX011 (ip), vehicle: saline) was 4 of 8. For the same compound, the survivor count (dose: 30.0 mg/kg/injection, schedule: Q01DX011 (sc), vehicle: saline) was 2 of 8, the survivor count (dose: 32.0 mg/kg/injection, schedule: Q01DX009 (ip), vehicle: water) was 6 of 10 and 10 of 10 (3×) and the survivor count (dose: 32.0 mg/kg/injection, schedule: Q01DX011 (ip), vehicle: saline) was 2 of 10 and 6 of 10. For the same compound, the T/C (dose: 36.0 mg/kg/injection, schedule: Q04DX003 (ip), vehicle: saline) was 147 % of control, the survivor count (dose: 40.0 mg/kg/injection, schedule: Q01DX011 (ip), vehicle: saline) was 0 of 8 and the survivor count (dose: 40.0 mg/kg/injection, schedule: Q01DX014 (ip), vehicle: saline) was 8 of 8. For the same compound, the T/C (dose: 40.0 mg/kg/injection, schedule: Q04DX003 (ip), vehicle: saline) was 125 % of control, the T/C (dose: 51.0 mg/kg/injection, schedule: Q04DX003 (ip), vehicle: saline) was 133 % of control [6 of 8 alive] and the survivor count (dose: 60.0 mg/kg/injection, schedule: Q01DX011 (ip), vehicle: saline) was 0 of 8. The survivor count (dose: 64.0 mg/kg/injection, schedule: Q01DX009 (ip), vehicle: water) was 10 of 10, the survivor count (dose: 73.0 mg/kg/injection, schedule: Q01DX001 (ip), vehicle: saline) was 4 of 8 and the survivor count (dose: 80.0 mg/kg/injection, schedule: Q04DX003 (ip), vehicle: saline) was 4 of 8. The survivor count (dose: 665.0 mg/kg/injection, schedule: Q04DX003 (ip), vehicle: saline) was 5 of 8.

Reference: PubChem BioAssay AID272 (DTP/NCI, 2004)
